# Experimental data taken from the supplement of paper PMC10849652.
# Amino acid sequences for entries named in this document (tags omitted). A change or cut given only in a name is not applied to a line headed by its entry.
# UniProt Q15014, whole entry, looked up: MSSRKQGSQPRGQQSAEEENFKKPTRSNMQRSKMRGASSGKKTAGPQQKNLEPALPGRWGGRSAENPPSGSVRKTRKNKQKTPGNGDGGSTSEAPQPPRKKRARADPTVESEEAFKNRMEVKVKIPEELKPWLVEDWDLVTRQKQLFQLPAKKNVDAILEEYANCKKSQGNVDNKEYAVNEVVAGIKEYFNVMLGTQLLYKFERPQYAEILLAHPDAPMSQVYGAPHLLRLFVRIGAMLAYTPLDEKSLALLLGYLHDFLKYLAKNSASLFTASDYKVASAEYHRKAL
# UniProt Q9NQG6: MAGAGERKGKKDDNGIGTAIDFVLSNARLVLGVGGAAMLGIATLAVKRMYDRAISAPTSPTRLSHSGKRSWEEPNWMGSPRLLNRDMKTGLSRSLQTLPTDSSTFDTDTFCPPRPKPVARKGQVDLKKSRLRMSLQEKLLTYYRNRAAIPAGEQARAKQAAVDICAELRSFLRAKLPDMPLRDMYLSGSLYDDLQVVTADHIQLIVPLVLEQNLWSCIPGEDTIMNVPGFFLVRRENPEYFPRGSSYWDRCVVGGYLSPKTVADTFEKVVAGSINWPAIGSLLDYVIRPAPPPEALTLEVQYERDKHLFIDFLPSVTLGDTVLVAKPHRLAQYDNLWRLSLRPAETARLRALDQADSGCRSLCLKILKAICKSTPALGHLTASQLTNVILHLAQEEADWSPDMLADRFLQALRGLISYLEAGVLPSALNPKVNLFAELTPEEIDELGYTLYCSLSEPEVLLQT
# UniProt O00566: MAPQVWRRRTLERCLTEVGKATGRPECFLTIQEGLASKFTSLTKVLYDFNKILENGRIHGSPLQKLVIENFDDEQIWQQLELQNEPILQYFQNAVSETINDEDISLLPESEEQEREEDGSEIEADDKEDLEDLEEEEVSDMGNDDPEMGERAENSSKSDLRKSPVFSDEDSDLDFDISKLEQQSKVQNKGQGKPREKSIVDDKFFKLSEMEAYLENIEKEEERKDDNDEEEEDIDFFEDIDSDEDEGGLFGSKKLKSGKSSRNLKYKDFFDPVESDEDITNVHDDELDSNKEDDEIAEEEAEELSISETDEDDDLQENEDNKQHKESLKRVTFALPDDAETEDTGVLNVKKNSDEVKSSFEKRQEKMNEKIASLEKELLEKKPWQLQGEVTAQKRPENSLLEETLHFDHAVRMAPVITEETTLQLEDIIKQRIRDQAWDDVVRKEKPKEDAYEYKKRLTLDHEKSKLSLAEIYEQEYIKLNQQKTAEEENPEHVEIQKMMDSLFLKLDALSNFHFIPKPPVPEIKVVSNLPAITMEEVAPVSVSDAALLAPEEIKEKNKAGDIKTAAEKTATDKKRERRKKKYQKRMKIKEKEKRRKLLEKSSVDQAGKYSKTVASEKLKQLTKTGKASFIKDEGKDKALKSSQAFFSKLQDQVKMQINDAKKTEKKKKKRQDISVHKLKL
# UniProt Q00013: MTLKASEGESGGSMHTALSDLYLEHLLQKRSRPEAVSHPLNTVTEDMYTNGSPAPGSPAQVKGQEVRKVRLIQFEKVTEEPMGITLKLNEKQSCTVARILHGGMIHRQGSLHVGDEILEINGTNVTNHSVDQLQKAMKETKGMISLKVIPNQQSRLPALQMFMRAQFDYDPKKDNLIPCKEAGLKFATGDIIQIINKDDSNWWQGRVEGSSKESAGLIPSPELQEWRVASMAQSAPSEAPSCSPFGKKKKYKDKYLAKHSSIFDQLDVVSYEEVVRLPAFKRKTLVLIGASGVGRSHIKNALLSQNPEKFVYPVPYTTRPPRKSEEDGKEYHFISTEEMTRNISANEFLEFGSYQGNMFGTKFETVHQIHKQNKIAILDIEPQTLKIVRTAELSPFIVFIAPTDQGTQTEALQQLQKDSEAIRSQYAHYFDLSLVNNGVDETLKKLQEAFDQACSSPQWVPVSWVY
# UniProt Q9NZW5: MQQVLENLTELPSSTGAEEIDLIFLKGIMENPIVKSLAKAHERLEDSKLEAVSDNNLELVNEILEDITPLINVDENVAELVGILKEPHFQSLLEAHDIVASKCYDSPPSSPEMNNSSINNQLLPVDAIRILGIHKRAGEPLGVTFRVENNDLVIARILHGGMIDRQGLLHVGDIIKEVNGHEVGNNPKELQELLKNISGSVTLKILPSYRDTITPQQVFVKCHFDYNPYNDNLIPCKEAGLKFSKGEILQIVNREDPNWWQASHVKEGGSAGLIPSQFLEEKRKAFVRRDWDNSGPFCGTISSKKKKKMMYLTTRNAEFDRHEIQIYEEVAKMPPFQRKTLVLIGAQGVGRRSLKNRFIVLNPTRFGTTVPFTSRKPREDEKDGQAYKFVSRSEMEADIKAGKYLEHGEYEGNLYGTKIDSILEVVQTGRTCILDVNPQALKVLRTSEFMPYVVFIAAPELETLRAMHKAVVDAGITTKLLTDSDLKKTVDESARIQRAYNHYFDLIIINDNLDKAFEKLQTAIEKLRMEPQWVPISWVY
# UniProt Q9H8M7: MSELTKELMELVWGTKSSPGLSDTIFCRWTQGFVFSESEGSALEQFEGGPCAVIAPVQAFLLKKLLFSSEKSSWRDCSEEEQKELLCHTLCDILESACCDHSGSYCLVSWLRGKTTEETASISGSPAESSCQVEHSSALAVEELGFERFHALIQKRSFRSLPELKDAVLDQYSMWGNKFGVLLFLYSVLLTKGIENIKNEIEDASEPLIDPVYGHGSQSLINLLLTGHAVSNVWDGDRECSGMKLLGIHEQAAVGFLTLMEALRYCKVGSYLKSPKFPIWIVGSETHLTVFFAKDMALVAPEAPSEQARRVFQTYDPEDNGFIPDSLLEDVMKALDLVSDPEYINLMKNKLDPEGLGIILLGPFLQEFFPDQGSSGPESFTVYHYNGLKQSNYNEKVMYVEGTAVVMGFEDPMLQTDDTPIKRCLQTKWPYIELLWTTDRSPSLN
# UniProt Q9BVC4, whole entry, looked up: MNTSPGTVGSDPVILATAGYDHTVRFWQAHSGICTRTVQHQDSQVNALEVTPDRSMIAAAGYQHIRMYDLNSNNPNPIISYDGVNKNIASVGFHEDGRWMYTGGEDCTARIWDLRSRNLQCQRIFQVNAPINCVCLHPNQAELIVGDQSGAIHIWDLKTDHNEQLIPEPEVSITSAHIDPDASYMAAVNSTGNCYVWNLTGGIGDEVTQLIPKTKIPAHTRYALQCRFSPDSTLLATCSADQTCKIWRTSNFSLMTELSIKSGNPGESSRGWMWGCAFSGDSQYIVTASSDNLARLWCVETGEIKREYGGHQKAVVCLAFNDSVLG
# UniProt P14174: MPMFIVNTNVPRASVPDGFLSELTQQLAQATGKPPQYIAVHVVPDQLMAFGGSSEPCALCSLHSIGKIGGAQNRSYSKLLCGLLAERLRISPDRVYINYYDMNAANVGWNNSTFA
# UniProt P51948: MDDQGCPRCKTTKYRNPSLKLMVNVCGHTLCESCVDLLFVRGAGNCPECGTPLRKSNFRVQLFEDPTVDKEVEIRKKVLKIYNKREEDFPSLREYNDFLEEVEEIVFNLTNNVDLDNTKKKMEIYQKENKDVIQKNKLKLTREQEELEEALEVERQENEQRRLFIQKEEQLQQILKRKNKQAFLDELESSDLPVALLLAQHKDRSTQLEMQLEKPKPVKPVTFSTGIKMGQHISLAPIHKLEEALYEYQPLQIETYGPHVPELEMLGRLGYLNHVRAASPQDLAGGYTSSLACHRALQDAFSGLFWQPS
# UniProt Q8N108: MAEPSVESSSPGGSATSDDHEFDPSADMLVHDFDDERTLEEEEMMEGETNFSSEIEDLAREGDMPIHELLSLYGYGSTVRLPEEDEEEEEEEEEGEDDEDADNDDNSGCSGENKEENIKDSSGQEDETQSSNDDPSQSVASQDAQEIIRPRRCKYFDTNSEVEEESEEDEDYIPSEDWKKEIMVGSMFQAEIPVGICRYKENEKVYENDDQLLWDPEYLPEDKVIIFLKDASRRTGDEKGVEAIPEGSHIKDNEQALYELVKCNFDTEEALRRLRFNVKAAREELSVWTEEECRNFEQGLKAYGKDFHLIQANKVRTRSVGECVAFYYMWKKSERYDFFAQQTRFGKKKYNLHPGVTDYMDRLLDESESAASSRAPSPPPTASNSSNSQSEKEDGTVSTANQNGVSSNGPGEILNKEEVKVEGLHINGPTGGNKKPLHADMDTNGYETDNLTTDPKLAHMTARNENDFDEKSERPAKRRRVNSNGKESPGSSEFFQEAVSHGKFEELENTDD
# UniProt O95396: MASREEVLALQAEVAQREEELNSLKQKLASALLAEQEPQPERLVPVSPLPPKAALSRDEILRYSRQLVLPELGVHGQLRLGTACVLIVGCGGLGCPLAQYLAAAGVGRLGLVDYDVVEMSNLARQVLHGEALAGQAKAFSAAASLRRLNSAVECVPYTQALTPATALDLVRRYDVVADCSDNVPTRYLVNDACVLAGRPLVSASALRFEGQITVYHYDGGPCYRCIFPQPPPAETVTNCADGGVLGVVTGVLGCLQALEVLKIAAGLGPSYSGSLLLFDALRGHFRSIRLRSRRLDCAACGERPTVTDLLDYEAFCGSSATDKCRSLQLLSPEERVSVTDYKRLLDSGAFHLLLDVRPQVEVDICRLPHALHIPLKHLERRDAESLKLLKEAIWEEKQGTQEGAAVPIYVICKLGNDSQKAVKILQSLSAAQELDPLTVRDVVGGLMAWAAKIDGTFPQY
# UniProt Q7L1V2: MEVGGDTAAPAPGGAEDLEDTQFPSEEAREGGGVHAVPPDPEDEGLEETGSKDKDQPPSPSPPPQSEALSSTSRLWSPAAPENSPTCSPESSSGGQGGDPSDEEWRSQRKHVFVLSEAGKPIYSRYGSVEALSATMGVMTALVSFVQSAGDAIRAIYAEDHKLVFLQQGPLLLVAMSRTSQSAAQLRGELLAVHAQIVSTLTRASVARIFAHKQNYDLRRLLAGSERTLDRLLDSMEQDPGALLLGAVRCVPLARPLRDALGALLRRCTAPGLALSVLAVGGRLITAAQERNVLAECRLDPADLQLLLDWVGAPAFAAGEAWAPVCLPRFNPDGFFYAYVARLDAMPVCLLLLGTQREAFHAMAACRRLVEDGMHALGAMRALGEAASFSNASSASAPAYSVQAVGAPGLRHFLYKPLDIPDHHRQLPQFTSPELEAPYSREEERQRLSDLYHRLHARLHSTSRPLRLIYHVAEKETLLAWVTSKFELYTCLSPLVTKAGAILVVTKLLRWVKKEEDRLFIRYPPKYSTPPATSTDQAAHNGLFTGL
# This is one part of the list. Residues, ends and D or L forms follow the SMILES beside them. *: point of attachment. Cbz = O=C(OCc1ccccc1)*
# Key:
# Assay in all cases: log2 fold change, soluble protein after heating vs DMSO (PISA); higher = thermal stabilisation; K562 cells, 10 uM, 30 min; active = over 0.2 and 3.5 SD of the protein, either way, in both replicates (recomputed)
# erlotinib = compound: C#Cc1cccc(Nc2ncnc3cc(OCCOC)c(OCCOC)cc23)c1 [erlotinib]
# Summary of the method: (§1)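 Thermal stability values are relative to control samples and come from duplicates. They are expressed as log2 fold changes. For measurement, K562 cells (2×10^6 cells/mL) received 10 μM compound for 30 min, and aliquots were heated for 3 min over 48°C-58°C, pooled, and extracted at 4°C in PBS with 0.5% NP-40. Soluble protein, the supernatant after 21,000xg for 90 min, was quantified by TMTpro 16plex LC-MS/MS with equalised channel sums.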
# [1] = compound: C/C(=N\NC(=O)C1=CC(=CC=C1)S(=O)(=O)N2CCOCC2)/C3=C(C=CC(=C3)Cl)O
# Summary of the method: as §1
# [2] = compound: C1=CC(=C(C=C1Cl)C2=NC3=NC=CN=C3C(=N2)NC4=CC=NC=C4)F
# Summary of the method: as §1
# [3] = compound: C1=CC(=CC=C1C2=NC3=C(N2)C=C(C=C3)C(=O)N)OC4=CC=C(C=C4)Cl
# Summary of the method: as §1
# [4] = compound: C1=CC2=C(C=CC(=C2)/C=C\3/C(=O)NC(=NCC4=CC=CS4)S3)N=C1
# Summary of the method: as §1
# [5] = compound: C1=CC2=NC=CN=C2C=C1/C=C/3\C(=O)NC(=O)S3
# Summary of the method: as §1
# [6] = compound: C1=CC=C(C=C1)C2=NC(=C(N2)C3=CC=NC=C3)C4=CC(=C(C=C4)Cl)O
# Summary of the method: as §1
# [7] = compound: C1=CC=C2C(=C1)C3=NNC4=CC=CC(=C43)C2=O
# Summary of the method: as §1
# [8] = compound: C1CCN(C1)C(=O)NC2=CC=CC(=C2)NC3=NC=C(C(=N3)NCCC4=CN=CN4)Br
# Summary of the method: as §1
# [9] = compound: C1CN(CCC1(CC2=CC=C(C=C2)Cl)N)C3=NC=NC4=C3C=CN4
# Summary of the method: as §1
# IRAK-1-4 Inhibitor I = compound: C1COCCN1CCN2C3=CC=CC=C3N=C2NC(=O)C4=CC(=CC=C4)[N+](=O)[O-] [IRAK-1-4 Inhibitor I]
# Summary of the method: as §1
# ibrutinib = compound: C=CC(=O)N1CCC[C@@H](n2nc(-c3ccc(Oc4ccccc4)cc3)c3c(N)ncnc32)C1 [ibrutinib]
# Summary of the method: as §1
# [10] = compound: CC(=O)c1cnc2ccc(-c3cc(Cl)c(O)c(Cl)c3)nc2c1N[C@H]1CC[C@H](CN(C)C)CC1
# Summary of the method: as §1
# ralimetinib = compound: CC(C)(C)Cn1c(N)nc2ccc(-c3[nH]c(C(C)(C)C)nc3-c3ccc(F)cc3)nc21 [ralimetinib]
# Summary of the method: as §1
# [11] = compound: CC(C)(O)CC(=O)NCCn1ccc2ncnc(Nc3ccc(Oc4cccc(C(F)(F)F)c4)c(Cl)c3)c21
# Summary of the method: as §1
# [12] = compound: CC(C)C1=C2N=C(C=C(N2N=C1)NCC3=CC=CC=C3)NCCCCCCN
# Summary of the method: as §1
# [13] = compound: CC(C)C[C@@H](C=O)NC(=O)[C@H](CC(C)C)NC(=O)[C@H](CC(C)C)NC(=O)OCc1ccccc1
# Summary of the method: as §1
# pinometostat = compound: CC(C)N(C[C@H]1O[C@@H](n2cnc3c(N)ncnc32)[C@H](O)[C@@H]1O)[C@H]1C[C@@H](CCc2nc3cc(C(C)(C)C)ccc3[nH]2)C1 [pinometostat]
# Summary of the method: as §1
# [14] = compound: CC1=C(C2=C(C=C1)C(=O)C3=CC=CC=C3N2CCCN)C
# Summary of the method: as §1
# [15] = compound: CC1=C(C(CC(=O)N1)C2=CC=C(C=C2)C(F)(F)F)C(=O)NC3=C(C=C4C(=C3)C=NN4)F
# Summary of the method: as §1
Target,log2 fold change (erlotinib),log2 fold change [1],log2 fold change [2],log2 fold change [3],log2 fold change [4],log2 fold change [5],log2 fold change [6],log2 fold change [7],log2 fold change [8],log2 fold change [9],log2 fold change (IRAK-1-4 Inhibitor I),log2 fold change (ibrutinib),log2 fold change [10],log2 fold change (ralimetinib),log2 fold change [11],log2 fold change [12],log2 fold change [13],log2 fold change (pinometostat),log2 fold change [14],log2 fold change [15]
MORF4L2 (UniProt Q15014),inactive: -0.114,inactive: -0.056,inactive: -0.181,inactive: 0.02,inactive: -0.03,inactive: 0.002,inactive: -0.108,inactive: -0.039,inactive: -0.108,inactive: -0.051,inactive: -0.116,inactive: 0.04,inactive: 0.047,inactive: -0.01,inactive: 0.039,inactive: 0.052,inactive: 0.271,inactive: 0.092,inactive: 0.005,
MRPL57 (UniProt Q9BQC6),inactive: -0.114,inactive: -0.152,inactive: -0.281,inactive: 0.065,inactive: 0.012,inactive: -0.059,,inactive: 0.042,inactive: -0.003,inactive: -0.196,,inactive: -0.057,inactive: 0.134,,inactive: 0.015,inactive: -0.043,,,inactive: -0.112,inactive: -0.028
MIEF1 (UniProt Q9NQG6),inactive: 0.009,inactive: 0.03,inactive: 0.104,inactive: 0.021,inactive: 0.072,inactive: 0.001,inactive: 0.025,inactive: -0.027,inactive: -0.028,inactive: -0.021,inactive: 0.056,inactive: -0.003,inactive: -0.016,inactive: -0.07,inactive: -0.183,inactive: -0.247,inactive: -0.034,inactive: -0.038,inactive: 0.112,
MPHOSPH10 (UniProt O00566),inactive: -0.079,inactive: -0.005,inactive: -0.412,inactive: -0.023,inactive: 0.031,inactive: 0.061,inactive: 0.07,inactive: -0.004,inactive: 0.024,inactive: -0.023,inactive: -0.215,inactive: -0.022,inactive: -0.064,inactive: 0.144,inactive: 0.089,inactive: -0.071,inactive: 0.053,inactive: 0.113,inactive: -0.56,
MRPL28 (UniProt Q13084),inactive: -0.117,inactive: -0.065,inactive: -0.155,inactive: 0.254,inactive: -0.042,inactive: -0.041,inactive: 0.05,inactive: 0.16,inactive: -0.076,inactive: -0.305,inactive: -0.124,inactive: -0.06,inactive: 0.101,inactive: 0.13,inactive: 0.013,inactive: 0.198,inactive: 0.136,inactive: 0.061,inactive: 0.023,inactive: 0.052
MPP1 (UniProt Q00013),inactive: 0.083,inactive: 0.098,inactive: 0.027,inactive: 0.016,inactive: 0.004,inactive: -0.001,inactive: 0.012,inactive: 0.033,inactive: -0.048,inactive: -0.019,inactive: -0.073,inactive: -0.047,inactive: -0.071,inactive: 0.075,inactive: -0.087,inactive: -0.147,inactive: 0.023,inactive: 0.011,inactive: 0.029,
MRPL50 (UniProt Q8N5N7),inactive: -0.107,inactive: -0.033,inactive: 0.048,inactive: 0.004,inactive: -0.008,inactive: 0.066,inactive: 0.312,inactive: 0.072,inactive: -0.084,inactive: -0.073,inactive: -0.036,inactive: 0.052,inactive: 0.036,inactive: 0.315,inactive: -0.001,inactive: -0.014,inactive: -0.203,inactive: -0.01,inactive: 0.16,
MPP6 (UniProt Q9NZW5),inactive: 0.015,inactive: 0.029,inactive: 0.053,inactive: 0.01,inactive: 0.011,inactive: -0.005,inactive: -0.058,inactive: -0.07,inactive: -0.034,inactive: 0.025,inactive: -0.01,inactive: -0.016,inactive: -0.197,inactive: -0.049,inactive: -0.024,inactive: 0.057,inactive: 0.048,inactive: 0.01,inactive: 0.05,inactive: -0.009
MIEF1 (UniProt L0R8F8),inactive: 0.025,inactive: 0.102,inactive: 0.021,inactive: -0.022,inactive: -0.073,inactive: -0.072,inactive: 0.033,inactive: 0.02,inactive: -0.107,inactive: 0.019,inactive: 0.071,inactive: 0.065,inactive: 0.022,inactive: -0.004,inactive: 0.011,inactive: -0.021,inactive: -0.053,inactive: -0.005,inactive: -0.004,
MINDY3 (UniProt Q9H8M7),inactive: 0.011,inactive: -0.015,inactive: 0.027,inactive: 0.011,inactive: 0.068,inactive: 0.009,inactive: 0.023,inactive: 0.036,inactive: -0.023,inactive: 0.089,inactive: 0.021,inactive: -0.003,inactive: -0.031,inactive: -0.003,inactive: 0.014,inactive: 0.006,inactive: 0.057,inactive: -0.084,inactive: 0.026,inactive: -0.037
MLST8 (UniProt Q9BVC4),inactive: -0.021,inactive: 0.049,inactive: -0.004,inactive: 0.102,inactive: 0.116,inactive: -0.026,,inactive: -0.111,inactive: -0.035,inactive: -0.105,inactive: 0.002,inactive: -0.048,inactive: 0.099,,inactive: -0.049,inactive: -0.136,,inactive: -0.093,inactive: 0.037,
MIF (UniProt P14174),inactive: 0.058,inactive: 0.128,active: 0.368,inactive: 0.033,inactive: -0.07,inactive: 0.034,inactive: -0.037,inactive: -0.069,inactive: -0.057,inactive: -0.029,inactive: 0.017,inactive: 0.039,inactive: -0.014,inactive: 0.071,inactive: -0.119,inactive: 0.052,inactive: 0.04,inactive: -0.043,inactive: 0.133,
MON2 isoform 5 (UniProt Q7Z3U7),inactive: 0.034,inactive: 0.034,inactive: 0.072,inactive: -0.019,inactive: 0.016,inactive: 0.015,inactive: 0.015,inactive: 0.007,inactive: -0.019,inactive: 0.004,inactive: 0.013,inactive: -0.036,inactive: -0.005,inactive: 0.097,inactive: -0.076,inactive: -0.088,inactive: 0.004,inactive: 0.048,inactive: 0.055,
MNAT1 (UniProt P51948),inactive: 0.01,inactive: 0.04,inactive: -0.066,inactive: 0.012,inactive: -0.012,inactive: 0.008,inactive: 0.002,inactive: -0.002,inactive: -0.067,inactive: -0.01,inactive: 0.025,inactive: 0.03,active: -0.221,inactive: -0.044,inactive: 0.024,inactive: 0.062,inactive: -0.028,inactive: 0.022,inactive: -0.027,
MIER1 isoform 12 (UniProt Q8N108),active: 0.399,inactive: 0.009,inactive: 0.016,inactive: -0.031,inactive: 0.024,inactive: 0.014,inactive: 0.001,inactive: 0.02,inactive: -0.06,inactive: 0.028,inactive: 0.055,inactive: -0.012,inactive: -0.035,inactive: 0.033,inactive: -0.021,inactive: -0.062,inactive: 0.03,inactive: -0.013,inactive: -0.122,
MOCS3 (UniProt O95396),inactive: 0.07,inactive: 0.1,inactive: 0.083,inactive: 0.062,inactive: 0.057,inactive: -0.121,,inactive: 0.047,inactive: 0.029,inactive: 0,inactive: -0.056,inactive: 0.029,inactive: -0.098,,inactive: -0.11,inactive: -0.156,,inactive: -0.064,inactive: -0.117,inactive: -0.05
MON1B (UniProt Q7L1V2),inactive: 0.016,inactive: 0.04,inactive: -0.021,inactive: 0.023,inactive: 0.089,inactive: -0.01,inactive: 0.066,inactive: -0.004,inactive: -0.005,inactive: -0.006,inactive: 0.047,inactive: 0.037,inactive: -0.013,inactive: 0.095,inactive: -0.006,active: -0.406,inactive: 0,inactive: -0.039,inactive: 0,
